Data as given in the supplement of paper PMC4604168 (melanoma cell lines).
The other results are listed elsewhere or left out. Repeats are few or missing, and single values can be far off.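 Imaging used 1,536-well plates; nuclei positive for cleaved PARP by antibody were divided by total DNA-stained nuclei to yield the apoptosis fraction. Doses for screening kept most cells viable, and cell lines differ markedly in resting and induced cleaved-PARP levels.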

Legend:
Experiment in all cases: cleaved PARP positive nuclei fraction relative to DMSO control; melanoma cells; higher = more apoptosis
Details in all cases: library dose: low library concentration; 72 h
[1] = tested on: 501Mel
[2] = tested on: A101D
[3] = tested on: A2058
[4] = tested on: A375
[5] = tested on: C32
[6] = tested on: CBRC008 (line from a melanoma biopsy)
[7] = tested on: CBRC014 (line from a melanoma biopsy)
[8] = tested on: CBRC016 (line from a melanoma biopsy)
[9] = tested on: CBRC017 (line from a melanoma biopsy)

SMILES	cleaved PARP positive nuclei fraction [1] [%]	cleaved PARP positive nuclei fraction [2] [%]	cleaved PARP positive nuclei fraction [3] [%]	cleaved PARP positive nuclei fraction [4] [%]	cleaved PARP positive nuclei fraction [5] [%]	cleaved PARP positive nuclei fraction [6] [%]	cleaved PARP positive nuclei fraction [7] [%]	cleaved PARP positive nuclei fraction [8] [%]	cleaved PARP positive nuclei fraction [9] [%]
C[C@]12O[C@H](C[C@]1(O)CO)n1c3ccccc3c3c4c(c5c6ccccc6n2c5c31)CNC4=O [Lestaurtinib] + CS(=O)(=O)c1ccc(C(=O)Nc2ccc(Cl)c(-c3ccccn3)c2)c(Cl)c1 [vismodegib] (first compound 0.004 µM, partner dose 1 µM)	87.7	120	98.9	77.3	296	155	88.8	133	83.8
Cn1cc(C2=C(c3cn(C4CCN(Cc5ccccn5)CC4)c4ccccc34)C(=O)NC2=O)c2ccccc21 [Enzastaurin] + CS(=O)(=O)CCNCc1ccc(-c2ccc3ncnc(Nc4ccc(OCc5cccc(F)c5)c(Cl)c4)c3c2)o1 [lapatinib] (first compound 0.8 µM, partner dose 0.8 µM)	66.6	220	141	149	65.5	212	122	48.9	178
O=c1[nH]nc(Sc2ncc([N+](=O)[O-])s2)n1-c1ccc2c(c1)OCCO2 + N.N.[Cl][Pt][Cl] [cisplatin] (first compound 0.2 µM, partner dose 1.6 µM)	99.6	38.8	50.7	101	68.9	41.6	97.2	168	132
C[C@]12O[C@H](C[C@]1(O)CO)n1c3ccccc3c3c4c(c5c6ccccc6n2c5c31)CNC4=O [Lestaurtinib] + CCCCCCCCc1ccc(CCC(N)(CO)CO)cc1 [fingolimod] (first compound 0.004 µM, partner dose 2 µM)	153	95.2	34.6	221	68.1	71.4	71.1	94.3	108
CCN(CC)CCNC(=O)c1c(C)[nH]c(/C=C2\C(=O)Nc3ccc(F)cc32)c1C [sunitinib] + C[As](C)SC[C@H](NC(=O)CC[C@H](N)C(=O)O)C(=O)NCC(=O)O [Darinaparsin] (first compound 0.4 µM, partner dose 0.4 µM)	85.8	145	112	120	81.9	110	80.5	53.3	88.5
N.N.[Cl][Pt][Cl] [cisplatin] + O=C(O)[C@@H]1[O][Sb](=[O])([O][Sb]2(=[O])[O][C@H]([C@H](O)CO)[C@H](O)[C@H](C(=O)O)[O]2)[O][C@H]([C@H](O)CO)[C@@H]1O [stibogluconate] (first compound 1.6 µM, partner dose 2 µM)	75.9	258	51.1	139	40.5	162	111	31.7	104
Cn1cc(C2=C(c3cn(C4CCN(Cc5ccccn5)CC4)c4ccccc34)C(=O)NC2=O)c2ccccc21 [Enzastaurin] + CCCCCCCCc1ccc(CCC(N)(CO)CO)cc1 [fingolimod] (first compound 0.8 µM, partner dose 2 µM)	170	54.1	98.3	164	33.1	102	104	72.4	121
O=C(O)c1ccc2c(c1)nc(Nc1cccc(Cl)c1)c1ccncc12 + C[As](C)SC[C@H](NC(=O)CC[C@H](N)C(=O)O)C(=O)NCC(=O)O [Darinaparsin] (first compound 0.4 µM, partner dose 0.4 µM)	182	127	179	143	85.4	78.1	350	187	350
CC(=O)O[C@@]12CO[C@@H]1C[C@H](O)[C@@]1(C)C(=O)[C@H](O)C3=C(C)[C@@H](OC(=O)[C@H](O)[C@@H](NC(=O)OC(C)(C)C)c4ccccc4)C[C@@](O)([C@@H](OC(=O)c4ccccc4)[C@H]21)C3(C)C [Docetaxel] + N.N.[Cl][Pt][Cl] [cisplatin] (first compound 0.0001 µM, partner dose 1.6 µM)	182	66.1	1930	1740	84.8	486	158	228	170
NC(=O)c1ccc(N(C(N)=O)c2c(F)cccc2F)nc1-c1ccc(F)cc1F + N.N.[Cl][Pt][Cl] [cisplatin] (first compound 0.4 µM, partner dose 1.6 µM)	121	190	105	50.8	61.6	156	112	402	109
C[C@]12O[C@H](C[C@]1(O)CO)n1c3ccccc3c3c4c(c5c6ccccc6n2c5c31)CNC4=O [Lestaurtinib] + CC(C)C[C@H](NC(=O)[C@H](Cc1ccccc1)NC(=O)c1cnccn1)B(O)O [Bortezomib] (first compound 0.004 µM, partner dose 0.001 µM)	240	745	57.8	72.1	68.4	162	153	561	255
C[As](C)SC[C@H](NC(=O)CC[C@H](N)C(=O)O)C(=O)NCC(=O)O [Darinaparsin] + Cc1nc(Nc2ncc(C(=O)Nc3c(C)cccc3Cl)s2)cc(N2CCN(CCO)CC2)n1 [dasatanib] (first compound 0.4 µM, partner dose 0.004 µM)	152	85	370	44.1	95.5	106	119	66.2	98.1
C[C@]12O[C@H](C[C@]1(O)CO)n1c3ccccc3c3c4c(c5c6ccccc6n2c5c31)CNC4=O [Lestaurtinib] + COc1ccc(Cl)c(Nc2nc3ccccc3nc2NS(=O)(=O)c2cccc(NC(=O)C(C)(C)N)c2)c1 [XL147] (first compound 0.004 µM, partner dose 0.8 µM)	53.6	48.1	90	152	96	776	245	233	149
C[C@@H](Oc1cc(-c2cnn(C3CCNCC3)c2)cnc1N)c1c(Cl)ccc(F)c1Cl [Crizotinib] + C[As](C)SC[C@H](NC(=O)CC[C@H](N)C(=O)O)C(=O)NCC(=O)O [Darinaparsin] (first compound 0.2 µM, partner dose 0.4 µM)	135	90.9	108	185	83.2	123	104	110	118
CC[C@]1(O)C[C@H]2CN(CCc3c([nH]c4ccccc34)[C@@](C(=O)OC)(c3cc4c(cc3OC)N(C=O)[C@H]3[C@@](O)(C(=O)OC)[C@H](OC(C)=O)[C@]5(CC)C=CCN6CC[C@]43[C@@H]65)C2)C1 [vincristine] + N.N.[Cl][Pt][Cl] [cisplatin] (first compound 0.0001 µM, partner dose 1.6 µM)	150	211	182	42.2	75.1	87.6	99.7	127	152
Cn1cc(C2=C(c3cn(C4CCN(Cc5ccccn5)CC4)c4ccccc34)C(=O)NC2=O)c2ccccc21 [Enzastaurin] + CCCS(=O)(=O)Nc1ccc(F)c(C(=O)c2c[nH]c3ncc(Cl)cc23)c1F [PLX4720] (first compound 0.8 µM, partner dose 0.08 µM)	56	92	87.2	127	94.2	168	114	87	118
C[C@]12O[C@H](C[C@]1(O)CO)n1c3ccccc3c3c4c(c5c6ccccc6n2c5c31)CNC4=O [Lestaurtinib] + CN1CCN(c2ccc3nc(-c4c(N)c5c(F)cccc5[nH]c4=O)[nH]c3c2)CC1 [Dovitinib] (first compound 0.004 µM, partner dose 0.1 µM)	145	125	185	131	92.8	21.8	81.4	83	67.2

Exported with bars between the fields: entries from further up
SMILES | cleaved PARP positive nuclei fraction [1] [%] | cleaved PARP positive nuclei fraction [2] [%] | cleaved PARP positive nuclei fraction [3] [%] | cleaved PARP positive nuclei fraction [4] [%] | cleaved PARP positive nuclei fraction [5] [%] | cleaved PARP positive nuclei fraction [6] [%] | cleaved PARP positive nuclei fraction [7] [%] | cleaved PARP positive nuclei fraction [8] [%] | cleaved PARP positive nuclei fraction [9] [%]
CC[C@]1(O)C[C@H]2CN(CCc3c([nH]c4ccccc34)[C@@](C(=O)OC)(c3cc4c(cc3OC)N(C=O)[C@H]3[C@@](O)(C(=O)OC)[C@H](OC(C)=O)[C@]5(CC)C=CCN6CC[C@]43[C@@H]65)C2)C1 [vincristine] + N.N.[Cl][Pt][Cl] [cisplatin] (first compound 0.0001 µM, partner dose 1.6 µM) | 150 | 211 | 182 | 42.2 | 75.1 | 87.6 | 99.7 | 127 | 152
Cn1cc(C2=C(c3cn(C4CCN(Cc5ccccn5)CC4)c4ccccc34)C(=O)NC2=O)c2ccccc21 [Enzastaurin] + CCCS(=O)(=O)Nc1ccc(F)c(C(=O)c2c[nH]c3ncc(Cl)cc23)c1F [PLX4720] (first compound 0.8 µM, partner dose 0.08 µM) | 56 | 92 | 87.2 | 127 | 94.2 | 168 | 114 | 87 | 118
